Measurements reported in article PMC10516748.
No constants are given. Whether binding was seen depends on the method and setting. Binding seen in cells or lysates may run through a third protein. Some entries that bind do so weakly or less than the wild type. Where a sequence is shown, tags or fusion partners need not be part of it.

By UniProt entry, the sequences of proteins in these tests, tags left out. Residues count along the entry.
UniProt P05362, residues 28-532: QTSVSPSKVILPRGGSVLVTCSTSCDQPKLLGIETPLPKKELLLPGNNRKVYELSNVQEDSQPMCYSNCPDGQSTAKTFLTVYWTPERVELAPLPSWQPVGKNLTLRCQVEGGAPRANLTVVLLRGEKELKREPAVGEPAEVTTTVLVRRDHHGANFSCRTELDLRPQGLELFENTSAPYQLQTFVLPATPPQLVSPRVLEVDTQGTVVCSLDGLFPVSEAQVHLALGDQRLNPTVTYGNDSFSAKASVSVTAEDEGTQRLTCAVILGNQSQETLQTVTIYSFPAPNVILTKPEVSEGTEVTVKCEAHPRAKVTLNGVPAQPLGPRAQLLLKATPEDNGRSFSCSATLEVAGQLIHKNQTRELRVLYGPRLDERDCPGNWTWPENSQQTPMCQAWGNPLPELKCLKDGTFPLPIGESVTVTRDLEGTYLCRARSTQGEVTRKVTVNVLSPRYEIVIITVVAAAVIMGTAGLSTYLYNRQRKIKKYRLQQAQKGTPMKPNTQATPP

Target: T1, ICAM2-His(6x) (UniProt P13598)
T1 sequence: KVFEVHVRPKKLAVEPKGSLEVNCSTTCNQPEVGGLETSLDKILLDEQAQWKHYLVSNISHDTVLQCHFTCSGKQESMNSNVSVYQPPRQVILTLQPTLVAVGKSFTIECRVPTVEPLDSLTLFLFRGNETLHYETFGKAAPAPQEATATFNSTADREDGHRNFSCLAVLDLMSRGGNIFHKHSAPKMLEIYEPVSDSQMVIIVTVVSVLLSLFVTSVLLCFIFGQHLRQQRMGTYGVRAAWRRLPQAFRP
Assay: pull-down; purified ICAM2-His(6x) as bait, endogenous proteins of choroid plexus epithelial cells as prey, western blotting; only the target purified

endogenous ICAM1 of choroid plexus epithelial cells (from UniProt P05362 28-532)
binding: binds
